# According to publication PMC10786922:
# By UniProt entry, the sequences of proteins in these tests, tags left out.
# UniProt Q08J23: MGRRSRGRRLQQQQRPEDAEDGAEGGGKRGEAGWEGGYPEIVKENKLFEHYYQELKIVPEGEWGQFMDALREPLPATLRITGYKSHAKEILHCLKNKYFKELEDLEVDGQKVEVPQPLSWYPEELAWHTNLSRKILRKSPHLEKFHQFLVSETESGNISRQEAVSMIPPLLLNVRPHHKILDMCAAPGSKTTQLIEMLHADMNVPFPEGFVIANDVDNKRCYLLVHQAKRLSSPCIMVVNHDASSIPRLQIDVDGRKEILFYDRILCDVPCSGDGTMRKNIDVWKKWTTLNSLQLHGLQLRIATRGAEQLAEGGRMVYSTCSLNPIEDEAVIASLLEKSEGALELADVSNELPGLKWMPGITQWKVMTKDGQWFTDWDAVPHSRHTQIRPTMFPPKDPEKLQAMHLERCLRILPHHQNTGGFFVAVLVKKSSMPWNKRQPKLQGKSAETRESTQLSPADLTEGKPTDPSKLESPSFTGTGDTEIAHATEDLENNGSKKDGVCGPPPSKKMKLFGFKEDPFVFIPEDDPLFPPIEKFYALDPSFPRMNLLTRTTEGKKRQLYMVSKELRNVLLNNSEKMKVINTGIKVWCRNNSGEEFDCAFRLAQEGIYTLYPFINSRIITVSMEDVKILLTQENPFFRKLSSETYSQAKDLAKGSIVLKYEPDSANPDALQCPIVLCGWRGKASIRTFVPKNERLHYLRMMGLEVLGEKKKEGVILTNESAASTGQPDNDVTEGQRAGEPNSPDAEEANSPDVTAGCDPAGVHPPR
# UniProt P03165: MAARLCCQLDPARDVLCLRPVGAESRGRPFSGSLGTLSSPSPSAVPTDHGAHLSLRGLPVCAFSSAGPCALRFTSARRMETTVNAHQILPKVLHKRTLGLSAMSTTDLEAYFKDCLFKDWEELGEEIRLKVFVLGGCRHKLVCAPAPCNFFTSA
# Results are given in words; binding and its absence hold for the method and conditions named. In cells and extracts the contact can be indirect.
# Target: Flag-NSUN2 (NOP2/Sun RNA methyltransferase 2) (UniProt Q08J23)
# Assay: co-IP; Huh7 cells co-transfected with HA-HBx and Flag-NSUN2, 48 h post-transfection; IP with anti-Flag, HBx blotted with anti-HA; IP buffer 50 mmol/L Tris-HCl pH 7.5, 1% Triton X-100, 150 mmol/L NaCl
substance,measurement,value
HA-HBx (hepatitis B virus X protein) (from UniProt P03165 1-154),binding,no binding
